Record: PubChem BioAssay AID1259308 (NCATS, 2017)

Aim: 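Candidate targets for better recombinant protein yield in mammalian cells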 (primary screen)
Cells: human HEK293 embryonic kidney cells stably expressing firefly luciferase (HEK-CMV-Luc2-Hygro)
Reagents: single siRNA against human genes, 0.8 pmol siRNA per well
Timing: 72 h
Read-out: 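Luciferase light (ONE-Glo) measured on one replicate plate set and viability (CellTiter-Glo) on the other, scaled to a negative control siRNA, with robust z-scores and luciferase per cell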
Reading the numbers: total luciferase, z-score and total luciferase, % of control: higher = more reporter protein produced
Hit rule: 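An siRNA counts as active if its total luciferase robust z-score exceeds 3; genes with two or more such siRNAs out of three were retested with fresh siRNAs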
Calls: active = raised luciferase; inactive = no rise
Here is an unselected part of about 59,000 reagents. About 1,510 of all reagents (2.6%) count as active. 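Calls use total luciferase alone and ignore viability, so some active siRNAs may act by altering cell number.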 Entries without a mark were called inactive. The numbers tell different reagents against one gene apart. Further read-outs or replicates are left out here. No sequences are given here.

Knock-down of MSH2 (mutS homolog 2) #1 came out at: total luciferase, z-score -0.039; total luciferase, % of control 81.1.
Knock-down of MSH2 (mutS homolog 2) #2 gave: total luciferase, z-score 0.816; total luciferase, % of control 98.1.
Against MSH2 (mutS homolog 2) #3 the deposit lists total luciferase, z-score -0.214; total luciferase, % of control 77.6.
Silencing of CBLL1 (Cbl proto-oncogene like 1) #1 resulted in: total luciferase, z-score -0.878; total luciferase, % of control 64.4.
For CBLL1 (Cbl proto-oncogene like 1) #2, the values are total luciferase, z-score -1.27; total luciferase, % of control 56.5.
After knock-down of CBLL1 (Cbl proto-oncogene like 1) #3, the record shows total luciferase, z-score -0.794; total luciferase, % of control 66.1.
With knock-down of LZIC (leucine zipper and CTNNBIP1 domain containing) #1, the record shows total luciferase, z-score -1.04; total luciferase, % of control 61.1.
Silencing of LZIC (leucine zipper and CTNNBIP1 domain containing) #2 gave: total luciferase, z-score 2.39; total luciferase, % of control 129.
With knock-down of LZIC (leucine zipper and CTNNBIP1 domain containing) #3 the results were total luciferase, z-score 0.645; total luciferase, % of control 94.7.
Knock-down of KCNC2 (potassium voltage-gated channel subfamily C member 2) #1 resulted in: total luciferase, z-score -1.3; total luciferase, % of control 56.1.
With knock-down of KCNC2 (potassium voltage-gated channel subfamily C member 2) #2, the record shows total luciferase, z-score -0.722; total luciferase, % of control 67.5.
KCNC2 (potassium voltage-gated channel subfamily C member 2) #3 scored total luciferase, z-score -2.39; total luciferase, % of control 34.3.
OR10A4 (olfactory receptor family 10 subfamily A member 4) #1 showed total luciferase, z-score -0.0402; total luciferase, % of control 81.1.
Depletion of OR10A4 (olfactory receptor family 10 subfamily A member 4) #2 came out at: total luciferase, z-score -0.684; total luciferase, % of control 68.3.
Depletion of OR10A4 (olfactory receptor family 10 subfamily A member 4) #3 gave: total luciferase, z-score 1.11; total luciferase, % of control 104.
APBA3 (amyloid beta precursor protein binding family A member 3) #1 gave total luciferase, z-score -0.276; total luciferase, % of control 76.4.
Depletion of APBA3 (amyloid beta precursor protein binding family A member 3) #2 came out at: total luciferase, z-score 0.122; total luciferase, % of control 84.3.
With knock-down of APBA3 (amyloid beta precursor protein binding family A member 3) #3, the record shows total luciferase, z-score 0.482; total luciferase, % of control 91.5.
With knock-down of RPS11 (ribosomal protein S11) #1, the screen gave total luciferase, z-score -3.11; total luciferase, % of control 19.9.
Depletion of RPS11 (ribosomal protein S11) #2 gave: total luciferase, z-score -1.67; total luciferase, % of control 48.6.
With knock-down of RPS11 (ribosomal protein S11) #3, the screen gave total luciferase, z-score -2.64; total luciferase, % of control 29.4.
After knock-down of NDUFB2 (NADH:ubiquinone oxidoreductase subunit B2) #1, the screen gave total luciferase, z-score -0.547; total luciferase, % of control 71.
For NDUFB2 (NADH:ubiquinone oxidoreductase subunit B2) #2, the values are total luciferase, z-score 0.835; total luciferase, % of control 98.5.
NDUFB2 (NADH:ubiquinone oxidoreductase subunit B2) #3 gave total luciferase, z-score -1.72; total luciferase, % of control 47.7.
CASP10 (caspase 10) #1 showed total luciferase, z-score -0.576; total luciferase, % of control 70.4.
For CASP10 (caspase 10) #2 the deposit lists total luciferase, z-score -0.462; total luciferase, % of control 72.7.
Silencing of CASP10 (caspase 10) #3 came out at: total luciferase, z-score -0.349; total luciferase, % of control 74.9.
NXPE4 (neurexophilin and PC-esterase domain family member 4) #1 showed total luciferase, z-score 0.269; total luciferase, % of control 87.2.
For NXPE4 (neurexophilin and PC-esterase domain family member 4) #2 the deposit lists total luciferase, z-score -0.0365; total luciferase, % of control 81.2.
Against NXPE4 (neurexophilin and PC-esterase domain family member 4) #3, the entry reads total luciferase, z-score 0.973; total luciferase, % of control 101.
CACNA1C (calcium voltage-gated channel subunit alpha1 C) #1 scored total luciferase, z-score -0.522; total luciferase, % of control 71.5.
Against CACNA1C (calcium voltage-gated channel subunit alpha1 C) #2, the entry reads total luciferase, z-score -1.06; total luciferase, % of control 60.8.
Knock-down of CACNA1C (calcium voltage-gated channel subunit alpha1 C) #3 came out at: total luciferase, z-score -1.28; total luciferase, % of control 56.4.
After knock-down of IRAK2 (interleukin 1 receptor associated kinase 2) #1, the screen gave total luciferase, z-score 1.06; total luciferase, % of control 103.
Depletion of IRAK2 (interleukin 1 receptor associated kinase 2) #2 came out at: total luciferase, z-score -0.156; total luciferase, % of control 78.8.
Against IRAK2 (interleukin 1 receptor associated kinase 2) #3 the deposit lists total luciferase, z-score 0.39; total luciferase, % of control 89.6.
Against CTRC (chymotrypsin C) #1, the values are total luciferase, z-score 0.397; total luciferase, % of control 89.8.
For CTRC (chymotrypsin C) #2 the deposit lists total luciferase, z-score 4.12 (active); total luciferase, % of control 164.
CTRC (chymotrypsin C) #3 scored total luciferase, z-score -0.649; total luciferase, % of control 69.
Silencing of KRT13 (keratin 13) #1 gave: total luciferase, z-score -1.09; total luciferase, % of control 60.2.
With knock-down of KRT13 (keratin 13) #2, the screen gave total luciferase, z-score -2.91; total luciferase, % of control 24.
Silencing of KRT13 (keratin 13) #3 resulted in: total luciferase, z-score 1.12; total luciferase, % of control 104.

Records above with an active call:
CTRC (chymotrypsin C) #2: total luciferase, z-score = 4.12 (active); total luciferase, % of control = 164
